The values below come from paper PMC10249358, “Elucidation of Short Linear Motif-Based Interactions of the FERM Domains of Ezrin, Radixin, Moesin, and Merlin” (Biochemistry, 2023).

Sequences of proteins named here, by UniProt entry; tags and fusion partners are left off. A change or cut given only in a name is not applied to a line headed by its entry. Residues count along the entry.
UniProt P35240, residues 22-312: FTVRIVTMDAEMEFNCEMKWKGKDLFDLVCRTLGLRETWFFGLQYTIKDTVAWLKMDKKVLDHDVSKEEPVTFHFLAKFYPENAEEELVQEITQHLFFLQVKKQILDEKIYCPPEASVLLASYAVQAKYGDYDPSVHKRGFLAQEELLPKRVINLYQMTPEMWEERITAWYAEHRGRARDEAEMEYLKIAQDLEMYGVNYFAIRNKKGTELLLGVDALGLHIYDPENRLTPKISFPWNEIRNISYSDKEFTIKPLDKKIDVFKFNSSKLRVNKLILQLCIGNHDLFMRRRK
UniProt A6ND36: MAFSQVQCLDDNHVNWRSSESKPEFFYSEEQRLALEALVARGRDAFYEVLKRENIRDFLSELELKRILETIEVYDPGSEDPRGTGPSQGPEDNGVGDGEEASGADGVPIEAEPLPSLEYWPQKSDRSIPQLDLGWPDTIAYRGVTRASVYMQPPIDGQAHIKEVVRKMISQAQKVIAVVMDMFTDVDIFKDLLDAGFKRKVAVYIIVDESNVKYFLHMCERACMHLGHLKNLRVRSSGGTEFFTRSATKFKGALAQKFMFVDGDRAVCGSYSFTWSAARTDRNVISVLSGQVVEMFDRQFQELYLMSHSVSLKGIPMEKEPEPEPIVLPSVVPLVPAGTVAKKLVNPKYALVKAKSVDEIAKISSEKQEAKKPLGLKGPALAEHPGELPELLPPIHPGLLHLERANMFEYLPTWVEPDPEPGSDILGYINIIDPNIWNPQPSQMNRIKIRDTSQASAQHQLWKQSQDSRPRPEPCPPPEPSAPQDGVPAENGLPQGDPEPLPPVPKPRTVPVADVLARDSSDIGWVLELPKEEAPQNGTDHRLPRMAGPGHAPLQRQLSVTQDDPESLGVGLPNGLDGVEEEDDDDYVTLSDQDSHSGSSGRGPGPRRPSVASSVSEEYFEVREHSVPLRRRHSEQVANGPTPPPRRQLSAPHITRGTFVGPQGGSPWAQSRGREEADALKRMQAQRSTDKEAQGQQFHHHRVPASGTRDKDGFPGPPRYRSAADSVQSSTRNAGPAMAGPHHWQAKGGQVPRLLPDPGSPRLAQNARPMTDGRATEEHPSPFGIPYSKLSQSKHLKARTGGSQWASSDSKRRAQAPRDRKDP
UniProt Q8IZU9: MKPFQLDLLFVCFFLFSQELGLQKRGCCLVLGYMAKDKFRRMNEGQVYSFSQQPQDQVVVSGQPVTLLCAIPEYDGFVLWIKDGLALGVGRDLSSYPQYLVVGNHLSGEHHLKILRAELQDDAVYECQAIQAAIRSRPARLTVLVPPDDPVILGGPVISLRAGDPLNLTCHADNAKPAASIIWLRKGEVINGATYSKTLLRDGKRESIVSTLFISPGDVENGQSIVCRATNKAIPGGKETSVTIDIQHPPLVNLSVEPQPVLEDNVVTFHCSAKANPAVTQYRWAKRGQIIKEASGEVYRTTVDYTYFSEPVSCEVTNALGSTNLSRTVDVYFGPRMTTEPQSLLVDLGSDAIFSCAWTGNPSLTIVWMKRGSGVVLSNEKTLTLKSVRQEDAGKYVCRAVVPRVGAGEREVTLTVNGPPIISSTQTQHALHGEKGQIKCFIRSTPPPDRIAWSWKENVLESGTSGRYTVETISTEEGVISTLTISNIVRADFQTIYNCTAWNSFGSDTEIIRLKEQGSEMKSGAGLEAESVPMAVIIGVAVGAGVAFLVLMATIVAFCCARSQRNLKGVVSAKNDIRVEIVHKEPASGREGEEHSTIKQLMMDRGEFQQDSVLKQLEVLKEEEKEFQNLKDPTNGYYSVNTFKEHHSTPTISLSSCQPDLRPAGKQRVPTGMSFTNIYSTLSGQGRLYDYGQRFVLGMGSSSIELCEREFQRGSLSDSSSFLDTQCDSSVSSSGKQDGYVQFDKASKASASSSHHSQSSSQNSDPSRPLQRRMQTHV
UniProt O14745: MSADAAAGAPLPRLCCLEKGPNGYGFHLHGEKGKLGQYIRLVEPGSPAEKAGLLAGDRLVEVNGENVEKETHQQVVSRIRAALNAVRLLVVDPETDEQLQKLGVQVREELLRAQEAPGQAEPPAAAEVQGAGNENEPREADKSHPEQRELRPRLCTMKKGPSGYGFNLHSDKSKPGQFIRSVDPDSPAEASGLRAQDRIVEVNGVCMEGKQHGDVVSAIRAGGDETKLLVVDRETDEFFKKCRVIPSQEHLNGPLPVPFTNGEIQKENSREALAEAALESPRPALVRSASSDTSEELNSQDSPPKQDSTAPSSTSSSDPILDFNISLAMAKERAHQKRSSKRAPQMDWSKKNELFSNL
UniProt P57082: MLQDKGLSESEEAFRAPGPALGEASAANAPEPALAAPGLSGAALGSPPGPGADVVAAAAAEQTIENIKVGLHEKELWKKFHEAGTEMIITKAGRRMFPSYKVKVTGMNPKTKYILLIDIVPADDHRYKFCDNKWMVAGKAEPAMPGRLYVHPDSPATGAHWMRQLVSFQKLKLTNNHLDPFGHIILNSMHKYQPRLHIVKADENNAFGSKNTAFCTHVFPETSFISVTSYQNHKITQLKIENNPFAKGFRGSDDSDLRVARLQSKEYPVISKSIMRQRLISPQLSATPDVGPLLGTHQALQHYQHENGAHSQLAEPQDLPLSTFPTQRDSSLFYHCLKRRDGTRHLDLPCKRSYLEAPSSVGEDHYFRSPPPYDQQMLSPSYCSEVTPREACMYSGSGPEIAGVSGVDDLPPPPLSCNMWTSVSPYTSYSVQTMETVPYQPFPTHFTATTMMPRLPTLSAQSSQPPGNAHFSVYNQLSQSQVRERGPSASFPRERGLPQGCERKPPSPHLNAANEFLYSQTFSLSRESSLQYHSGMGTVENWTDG

Results are given in words; binding and its absence hold for the method and conditions named. For some assays here: Binding seen in cells or lysates may run through a third protein. Some results given as binding are weak or reduced against the parent protein; the word gives no strength.

Assay [1] has as its target GST-tagged merlin FERM domain (human) (UniProt P35240). The assay is described as follows: ELISA; clonal phage ELISA: GST-tagged merlin FERM immobilised, phage displaying one peptide added; ratio of A450 on target to GST background, normalized to the WT peptide; only the target purified. In general terms: In an ELISA, binding on a coated surface is turned into a signal by an enzyme label.

The target of assay [2] is moesin FERM domain (UniProt P26038). Kind of assay: fluorescence polarisation; direct binding of FITC-labeled probe peptide titrated with moesin FERM in the presence of a saturating concentration of unlabeled peptide (80–150 μM); FP buffer; both purified.
Assay [3] has the same target. The assay is described as follows: fluorescence polarisation; competition: precomplex of FERM domain (2 x KD) and FITC-KIRREL3(637–652) probe, titrated with unlabeled peptide; constants printed as KD′; FP buffer; both purified. (In general: Polarisation of emitted light reports the rotation of a fluorescent probe.)
In assay [4] the target is GST-tagged moesin FERM domain (UniProt P26038). Kind of assay: pull-down; GST-tagged moesin or merlin FERM domain mixed with lysate of transfected HEK293 cells (0.5 mg protein) and GSH magnetic beads, GFP-Trap or anti-FLAG M2 beads, overnight 4 °C; 50 mM Tris-HCl pH 7.4, 150 mM NaCl, 0.5% NP-40; immunoblot; only the target purified.
The target of assay [5] is GST-tagged merlin FERM domain (human) (UniProt P35240). The assay is described as above.

On to FYDLWASDN [NOP53(192–207) phage peptide, C-terminal truncation (deletion of PLDRPLV)], for which, in assay [1], the binding result was “no binding”.
As to LEFADFYDFRSSYPDH (peptide, UniProt Q969S3 341-356) [ZNF622(341–356) peptide, unlabeled], the binding entry with moesin FERM domain [2] is reported as “binds”.
With AEPLPSLEYWPQ (peptide, UniProt A6ND36 111-122) [FAM83G(111–126) phage peptide, C-terminal truncation (KSDR deletion)], the binding entry in assay [1] is recorded as “binds”.
Take TNGYYSVNTFKEHHSTPTI (peptide, UniProt Q8IZU9 634-652) [KIRREL3(634–652) peptide, unlabeled, N-terminally extended]: the binding result with moesin FERM domain [3] is on record as “binds”.
For the molecule SLEYWPQKSDR (peptide, UniProt A6ND36 116-126) [FAM83G(111–126) phage peptide, N-terminal truncation (AEPLP deletion)], the binding result in assay [1] is given as “binds”.
Same read-out and setting: with AEPLPSLEYWPQKSDR (peptide, UniProt A6ND36 111-126) [FAM83G(111–126) peptide displayed on M13 phage] the entry was “binds”.
Take APQMDWSKKNELFSNL (peptide, UniProt O14745 343-358) [EBP50(343–358) peptide, unlabeled]: in the assay with moesin FERM domain [2], the binding entry was “binds”.

B1: full-length ZNF622 (protein, UniProt Q969S3 1-477)
chain: MATYTCITCRVAFRDADMQRAHYKTDWHRYNLRRKVASMAPVTAEGFQERVRAQRAVAEEESKGSATYCTVCSKKFASFNAYENHLKSRRHVELEKKAVQAVNRKVEMMNEKNLEKGLGVDSVDKDAMNAAIQQAIKAQPSMSPKKAPPAPAKEARNVVAVGTGGRGTHDRDPSEKPPRLQWFEQQAKKLAKQQEEDSEEEEEDLDGDDWEDIDSDEELECEDTEAMDDVVEQDAEEEEAEEGPPLGAIPITDCLFCSHHSSSLMKNVAHMTKDHSFFIPDIEYLSDIKGLIKYLGEKVGVGKICLWCNEKGKSFYSTEAVQAHMNDKSHCKLFTDGDAALEFADFYDFRSSYPDHKEGEDPNKAEELPSEKNLEYDDETMELILPSGARVGHRSLMRYYKQRFGLSRAVAVAKNRKAVGRVLQQYRALGWTGSTGAALMRERDMQYVQRMKSKWMLKTGMKNNATKQMHFRVQVRF
Consider B1, for which the binding entry in assay [4] and in assay [5] was “binds” in each case.

B2: full-length RRBP1 (protein, UniProt Q9P2E9 1-1410)
chain: MDIYDTQTLGVVVFGGFMVVSAIGIFLVSTFSMKETSYEEALANQRKEMAKTHHQKVEKKKKEKTVEKKGKTKKKEEKPNGKIPDHDPAPNVTVLLREPVRAPAVAVAPTPVQPPIIVAPVATVPAMPQEKLASSPKDKKKKEKKVAKVEPAVSSVVNSIQVLTSKAAILETAPKEVPMVVVPPVGAKGNTPATGTTQGKKAEGTQNQSKKAEGAPNQGRKAEGTPNQGKKTEGTPNQGKKAEGTPNQGKKAEGTPNQGKKAEGAQNQGKKVDTTPNQGKKVEGAPTQGRKAEGAQNQAKKVEGAQNQGKKAEGAQNQGKKGEGAQNQGKKAEGAQNQGKKAEGAQNQGKKAEGAQNQGKKAEGAQNQGKKAEGAQNQGKKAEGAQNQGKKVEGAQNQGKKAEGAQNQGKKAEGAQNQGKKAEGAQNQGKKAEGAQNQGKKAEGAQNQGKKAEGAQNQGKKAEGAQNQGKKVEGAQNQGKKAEGAQNQGKKAEGAQNQGKKAEGAQNQGQKGEGAQNQGKKTEGAQGKKAERSPNQGKKGEGAPIQGKKADSVANQGTKVEGITNQGKKAEGSPSEGKKAEGSPNQGKKADAAANQGKKTESASVQGRNTDVAQSPEAPKQEAPAKKKSGSKKKGEPGPPDADGPLYLPYKTLVSTVGSMVFNEGEAQRLIEILSEKAGIIQDTWHKATQKGDPVAILKRQLEEKEKLLATEQEDAAVAKSKLRELNKEMAAEKAKAAAGEAKVKKQLVAREQEITAVQARMQASYREHVKEVQQLQGKIRTLQEQLENGPNTQLARLQQENSILRDALNQATSQVESKQNAELAKLRQELSKVSKELVEKSEAVRQDEQQRKALEAKAAAFEKQVLQLQASHRESEEALQKRLDEVSRELCHTQSSHASLRADAEKAQEQQQQMAELHSKLQSSEAEVRSKCEELSGLHGQLQEARAENSQLTERIRSIEALLEAGQARDAQDVQASQAEADQQQTRLKELESQVSGLEKEAIELREAVEQQKVKNNDLREKNWKAMEALATAEQACKEKLLSLTQAKEESEKQLCLIEAQTMEALLALLPELSVLAQQNYTEWLQDLKEKGPTLLKHPPAPAEPSSDLASKLREAEETQSTLQAECDQYRSILAETEGMLRDLQKSVEEEEQVWRAKVGAAEEELQKSRVTVKHLEEIVEKLKGELESSDQVREHTSHLEAELEKHMAAASAECQNYAKEVAGLRQLLLESQSQLDAAKSEAQKQSDELALVRQQLSEMKSHVEDGDIAGAPASSPEAPPAEQDPVQLKTQLEWTEAILEDEQTQRQKLTAEFEEAQTSACRLQEELEKLRTAGPLESSETEEASQLKERLEKEKKLTSDLGRAATRLQELLKTTQEQLAREKDTVKKLQEQLEKAEDGSSSKEGTSV
B2: the binding entry in assay [4] is on record as “no binding”; in assay [5] it was “binds”.
Take FYDLWASDNPLDRPLV [NOP53(192–207) peptide displayed on M13 phage]: in assay [1], the binding entry was “binds”.
Consider SYSVQTMETVPYQPFP (peptide, UniProt P57082 428-443) [TBX4(428–443) peptide, unlabeled], for which the binding result with moesin FERM domain [2] is “binds”.
In the case of YYSVNTFKEHHSTPTI (peptide, UniProt Q8IZU9 637-652) [KIRREL3(637–652) peptide, unlabeled], in the assay with moesin FERM domain [3], the binding entry was “binds”.
